In PMC2243016:
Results are given in words; binding and its absence hold for the method and conditions named. In cells and extracts the contact can be indirect. Binding can be weak; no strength is given.

Molecular target: N-terminal CycG-region (GST fusion) (Drosophila melanogaster)
Experiment: pull-down; GST-CycG fusion proteins on beads, in vitro translated 35S-Corto, autoradiography; only the target purified

B1: In vitro translated Corto protein (35S-labelled) (protein, UniProt P41046 1-550)
chain: MTMAACYANYDMSSLSHGMSALSALQQQQQQQQQQHSQTQQQHHHQQQQQHMYHAAVAAHQQQLLQQQQQQQHHRHHHQPANTSSSSNSRHSHAAATQTQVAAAVANSRQQQQQQQQQQQQQQQQQTASSNSNAAPAPSPQKDYSIPLHVDCSVEYELPNQPKPPAGQRVEPLLMIHPCYFRKMESQRRSPFVNNMHATARAVSSSSLSSGAALGGGGSGAAVATAPSSSAARRGARAATSAQQQQQQQQRYQQQQQQLRQQHQQMSQMSQQAHYPQQQSSLVRQHQQQQQQQQQQQRASSNQSQRQSQSQSQSQSHAANSAAAAAAQASIAAAAAGQWDQLAALAARTALTPHHMLHPHSHYAAKGSGGGAGGGKRDAMISGSYGQTAVASGKLQQSQVQQQQPQQQQQHCLPPPPWDATSMLMDRSPMATVPSNYQAGPDTNPMRLYSATPTAGAASGGSASVGGGGAVSGAGATGAVNTATDKLSGKYRQYLRSQRMHPYAAAASLNLAAAAAAAGQTSFVPFSSAATAVAATPTFQHLPQISCYNV
modifications: 35S label
B1 was tested. Which binding did it give?
The binding was “binds”.
